Some of the results follow. Most entries show no effect beyond the scatter of the controls.

Chains of the proteins cited; added tags and fusions are not shown. Lines headed by an entry give the natural chain unless they say otherwise; changes in a name come on top.
UniProt Q9BTV6: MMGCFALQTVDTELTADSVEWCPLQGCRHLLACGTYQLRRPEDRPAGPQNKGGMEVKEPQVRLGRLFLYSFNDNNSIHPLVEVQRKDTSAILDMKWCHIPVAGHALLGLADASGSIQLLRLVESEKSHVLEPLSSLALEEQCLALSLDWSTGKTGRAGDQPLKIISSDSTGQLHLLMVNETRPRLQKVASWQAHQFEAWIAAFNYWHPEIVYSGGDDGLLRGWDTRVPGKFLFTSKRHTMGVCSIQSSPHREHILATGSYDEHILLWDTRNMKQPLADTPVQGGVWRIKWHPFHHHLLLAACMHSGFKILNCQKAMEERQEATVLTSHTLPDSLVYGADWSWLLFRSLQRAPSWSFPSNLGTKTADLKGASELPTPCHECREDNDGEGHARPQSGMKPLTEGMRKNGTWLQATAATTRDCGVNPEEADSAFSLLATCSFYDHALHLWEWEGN
UniProt Q9BUF5, whole entry: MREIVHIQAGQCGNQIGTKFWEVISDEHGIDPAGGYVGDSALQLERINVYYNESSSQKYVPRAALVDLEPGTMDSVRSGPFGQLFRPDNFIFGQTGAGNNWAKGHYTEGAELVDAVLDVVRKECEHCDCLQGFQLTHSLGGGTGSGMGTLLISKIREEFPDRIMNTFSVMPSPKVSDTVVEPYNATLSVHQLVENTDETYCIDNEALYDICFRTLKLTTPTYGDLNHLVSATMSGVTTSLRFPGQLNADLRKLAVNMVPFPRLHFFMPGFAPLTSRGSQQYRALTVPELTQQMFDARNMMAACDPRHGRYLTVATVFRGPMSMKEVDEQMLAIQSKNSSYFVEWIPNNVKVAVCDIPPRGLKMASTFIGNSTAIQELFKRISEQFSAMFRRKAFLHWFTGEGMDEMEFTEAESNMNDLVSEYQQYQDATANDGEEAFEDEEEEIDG
UniProt Q9BRT3: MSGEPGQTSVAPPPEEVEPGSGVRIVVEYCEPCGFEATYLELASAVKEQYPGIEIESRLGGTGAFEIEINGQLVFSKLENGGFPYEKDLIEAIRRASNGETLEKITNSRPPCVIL
UniProt Q99676: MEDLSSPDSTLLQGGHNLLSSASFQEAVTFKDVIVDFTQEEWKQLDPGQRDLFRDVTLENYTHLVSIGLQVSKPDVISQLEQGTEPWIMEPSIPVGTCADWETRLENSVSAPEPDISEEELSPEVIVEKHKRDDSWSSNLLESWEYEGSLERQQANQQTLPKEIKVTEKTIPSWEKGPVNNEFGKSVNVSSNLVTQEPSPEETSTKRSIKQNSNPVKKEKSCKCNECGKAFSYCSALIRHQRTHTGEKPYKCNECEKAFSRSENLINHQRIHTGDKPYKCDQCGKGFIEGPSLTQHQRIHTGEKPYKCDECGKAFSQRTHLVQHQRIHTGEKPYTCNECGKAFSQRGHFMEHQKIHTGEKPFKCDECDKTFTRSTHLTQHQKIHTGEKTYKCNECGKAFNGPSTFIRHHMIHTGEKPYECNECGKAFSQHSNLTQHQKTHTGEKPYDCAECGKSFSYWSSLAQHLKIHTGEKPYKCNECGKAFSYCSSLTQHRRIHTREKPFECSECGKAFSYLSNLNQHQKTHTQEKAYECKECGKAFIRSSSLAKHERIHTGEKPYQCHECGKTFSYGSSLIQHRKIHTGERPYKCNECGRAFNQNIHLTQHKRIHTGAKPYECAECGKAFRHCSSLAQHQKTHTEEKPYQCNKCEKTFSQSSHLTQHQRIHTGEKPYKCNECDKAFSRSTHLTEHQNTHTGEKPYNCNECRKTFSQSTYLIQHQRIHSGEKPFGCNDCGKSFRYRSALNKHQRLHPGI
UniProt Q99996, whole entry: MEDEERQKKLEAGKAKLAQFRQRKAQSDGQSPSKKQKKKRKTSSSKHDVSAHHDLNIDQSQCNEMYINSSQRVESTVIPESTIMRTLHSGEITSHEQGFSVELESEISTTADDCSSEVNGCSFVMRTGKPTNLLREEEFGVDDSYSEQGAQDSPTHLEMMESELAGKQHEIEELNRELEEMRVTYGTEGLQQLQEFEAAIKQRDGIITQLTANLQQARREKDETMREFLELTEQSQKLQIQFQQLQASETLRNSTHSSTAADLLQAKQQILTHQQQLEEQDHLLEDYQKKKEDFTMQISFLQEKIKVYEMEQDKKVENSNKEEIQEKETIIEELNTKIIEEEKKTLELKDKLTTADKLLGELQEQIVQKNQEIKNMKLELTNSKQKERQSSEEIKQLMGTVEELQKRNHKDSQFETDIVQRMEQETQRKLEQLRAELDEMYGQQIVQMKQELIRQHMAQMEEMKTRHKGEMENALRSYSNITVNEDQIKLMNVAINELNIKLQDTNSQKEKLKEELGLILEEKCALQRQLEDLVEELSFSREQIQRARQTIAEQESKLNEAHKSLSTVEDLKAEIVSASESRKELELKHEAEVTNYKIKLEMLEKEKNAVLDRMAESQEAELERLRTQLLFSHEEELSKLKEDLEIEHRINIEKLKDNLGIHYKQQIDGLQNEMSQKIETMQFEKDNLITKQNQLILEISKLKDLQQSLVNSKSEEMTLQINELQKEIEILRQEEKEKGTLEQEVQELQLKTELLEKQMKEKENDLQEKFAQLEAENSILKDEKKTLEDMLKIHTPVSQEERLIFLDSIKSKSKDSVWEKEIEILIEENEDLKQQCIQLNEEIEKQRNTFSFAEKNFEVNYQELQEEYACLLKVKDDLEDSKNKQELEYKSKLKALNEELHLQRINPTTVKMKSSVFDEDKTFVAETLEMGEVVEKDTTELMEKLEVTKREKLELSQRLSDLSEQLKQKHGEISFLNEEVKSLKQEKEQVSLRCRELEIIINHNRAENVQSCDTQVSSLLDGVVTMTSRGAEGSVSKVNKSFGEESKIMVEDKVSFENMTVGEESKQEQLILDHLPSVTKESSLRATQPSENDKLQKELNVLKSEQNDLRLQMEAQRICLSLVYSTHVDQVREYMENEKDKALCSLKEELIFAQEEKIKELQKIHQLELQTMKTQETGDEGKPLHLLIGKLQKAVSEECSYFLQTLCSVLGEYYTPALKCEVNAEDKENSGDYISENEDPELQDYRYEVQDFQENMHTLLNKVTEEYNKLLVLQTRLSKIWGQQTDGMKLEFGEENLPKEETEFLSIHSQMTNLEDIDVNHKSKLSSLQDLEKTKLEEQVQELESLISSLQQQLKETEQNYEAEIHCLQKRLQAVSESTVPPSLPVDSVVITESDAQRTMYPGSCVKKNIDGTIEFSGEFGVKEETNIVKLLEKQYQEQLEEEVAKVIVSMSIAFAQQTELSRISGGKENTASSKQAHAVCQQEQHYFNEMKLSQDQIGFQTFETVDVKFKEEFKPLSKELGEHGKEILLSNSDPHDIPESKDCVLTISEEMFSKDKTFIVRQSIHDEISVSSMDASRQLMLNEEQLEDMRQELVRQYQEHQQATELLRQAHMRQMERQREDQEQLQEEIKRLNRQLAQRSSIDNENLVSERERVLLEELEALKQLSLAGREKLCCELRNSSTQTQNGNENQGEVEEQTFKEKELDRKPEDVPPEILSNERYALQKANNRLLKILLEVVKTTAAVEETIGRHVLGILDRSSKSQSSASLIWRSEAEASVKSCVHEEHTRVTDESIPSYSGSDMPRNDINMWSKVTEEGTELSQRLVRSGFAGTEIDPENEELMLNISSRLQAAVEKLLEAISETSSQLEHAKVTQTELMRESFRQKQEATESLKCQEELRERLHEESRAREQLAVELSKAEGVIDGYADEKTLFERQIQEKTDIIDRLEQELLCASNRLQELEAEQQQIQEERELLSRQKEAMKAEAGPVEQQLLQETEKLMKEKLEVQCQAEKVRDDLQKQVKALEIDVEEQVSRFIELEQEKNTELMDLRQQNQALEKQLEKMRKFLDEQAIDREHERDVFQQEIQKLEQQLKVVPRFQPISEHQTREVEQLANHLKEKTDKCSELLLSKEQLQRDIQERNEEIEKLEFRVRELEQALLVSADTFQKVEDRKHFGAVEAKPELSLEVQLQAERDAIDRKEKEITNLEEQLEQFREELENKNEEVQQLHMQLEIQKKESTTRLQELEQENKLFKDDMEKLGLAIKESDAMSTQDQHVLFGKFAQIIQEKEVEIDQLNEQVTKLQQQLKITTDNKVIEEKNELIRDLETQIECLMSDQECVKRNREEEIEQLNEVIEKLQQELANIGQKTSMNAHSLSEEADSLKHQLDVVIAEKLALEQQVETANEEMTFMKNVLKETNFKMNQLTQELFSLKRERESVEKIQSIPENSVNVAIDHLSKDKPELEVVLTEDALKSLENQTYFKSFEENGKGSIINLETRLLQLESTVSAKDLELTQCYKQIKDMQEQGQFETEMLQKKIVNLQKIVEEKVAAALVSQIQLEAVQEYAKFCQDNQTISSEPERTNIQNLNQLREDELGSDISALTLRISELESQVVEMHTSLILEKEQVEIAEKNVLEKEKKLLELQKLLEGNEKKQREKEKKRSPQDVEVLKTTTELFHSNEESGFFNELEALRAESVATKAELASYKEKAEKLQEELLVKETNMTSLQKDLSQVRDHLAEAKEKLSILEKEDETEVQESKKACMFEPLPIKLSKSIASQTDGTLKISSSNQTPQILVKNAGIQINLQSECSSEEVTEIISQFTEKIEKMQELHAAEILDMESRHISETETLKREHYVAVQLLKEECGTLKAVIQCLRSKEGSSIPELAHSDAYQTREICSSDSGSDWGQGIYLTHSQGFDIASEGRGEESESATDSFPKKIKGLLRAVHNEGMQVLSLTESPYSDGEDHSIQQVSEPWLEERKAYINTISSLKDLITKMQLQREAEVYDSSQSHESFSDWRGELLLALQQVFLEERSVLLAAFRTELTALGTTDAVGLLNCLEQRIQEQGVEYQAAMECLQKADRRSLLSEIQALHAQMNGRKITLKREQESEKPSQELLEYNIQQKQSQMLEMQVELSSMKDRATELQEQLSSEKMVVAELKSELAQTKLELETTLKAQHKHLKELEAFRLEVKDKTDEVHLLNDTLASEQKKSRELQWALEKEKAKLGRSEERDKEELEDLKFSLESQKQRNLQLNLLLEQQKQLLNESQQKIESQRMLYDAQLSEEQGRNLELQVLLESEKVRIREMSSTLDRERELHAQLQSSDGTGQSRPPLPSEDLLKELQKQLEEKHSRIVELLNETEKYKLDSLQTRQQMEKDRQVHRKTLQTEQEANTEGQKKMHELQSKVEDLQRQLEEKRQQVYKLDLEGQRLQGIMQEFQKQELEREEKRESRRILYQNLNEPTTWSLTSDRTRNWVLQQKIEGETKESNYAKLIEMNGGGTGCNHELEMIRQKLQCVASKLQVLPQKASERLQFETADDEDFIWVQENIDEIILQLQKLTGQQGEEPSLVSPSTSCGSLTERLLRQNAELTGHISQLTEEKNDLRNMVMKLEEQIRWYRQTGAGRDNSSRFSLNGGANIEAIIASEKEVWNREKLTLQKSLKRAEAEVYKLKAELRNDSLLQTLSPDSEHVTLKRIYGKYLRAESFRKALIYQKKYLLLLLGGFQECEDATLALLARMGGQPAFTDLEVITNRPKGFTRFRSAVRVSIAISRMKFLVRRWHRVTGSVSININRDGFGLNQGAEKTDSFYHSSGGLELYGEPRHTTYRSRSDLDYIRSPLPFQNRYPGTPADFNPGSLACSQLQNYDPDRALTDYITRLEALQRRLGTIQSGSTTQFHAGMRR
UniProt Q99807: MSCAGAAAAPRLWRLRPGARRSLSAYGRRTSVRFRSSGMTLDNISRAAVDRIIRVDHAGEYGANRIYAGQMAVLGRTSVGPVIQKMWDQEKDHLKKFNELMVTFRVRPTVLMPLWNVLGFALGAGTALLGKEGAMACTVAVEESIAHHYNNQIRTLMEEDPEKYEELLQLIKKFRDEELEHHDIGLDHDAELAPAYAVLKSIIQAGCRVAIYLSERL
UniProt Q99447: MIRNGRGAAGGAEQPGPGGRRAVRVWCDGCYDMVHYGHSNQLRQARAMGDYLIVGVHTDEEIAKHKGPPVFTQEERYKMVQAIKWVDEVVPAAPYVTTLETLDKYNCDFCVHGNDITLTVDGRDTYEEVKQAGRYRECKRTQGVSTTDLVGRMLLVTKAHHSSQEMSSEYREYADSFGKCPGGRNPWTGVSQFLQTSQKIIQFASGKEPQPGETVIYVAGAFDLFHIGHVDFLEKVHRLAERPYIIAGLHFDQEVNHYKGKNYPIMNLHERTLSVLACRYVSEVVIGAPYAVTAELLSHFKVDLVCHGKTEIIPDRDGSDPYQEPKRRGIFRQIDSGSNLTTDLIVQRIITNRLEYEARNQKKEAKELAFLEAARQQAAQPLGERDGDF
UniProt Q9BUP0: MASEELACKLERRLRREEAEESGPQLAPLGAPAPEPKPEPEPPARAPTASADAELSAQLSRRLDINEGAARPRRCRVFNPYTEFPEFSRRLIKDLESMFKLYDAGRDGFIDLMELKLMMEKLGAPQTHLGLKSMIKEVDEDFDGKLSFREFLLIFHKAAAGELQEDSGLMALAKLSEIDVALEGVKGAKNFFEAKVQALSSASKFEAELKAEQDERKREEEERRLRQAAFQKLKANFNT

Compound in the test: Cc1nc(Nc2ncc(C(=O)Nc3c(C)cccc3Cl)s2)cc(N2CCN(CCO)CC2)n1 [dasatinib]
Nature of the test: log2 fold change of tryptic peptide abundance, ligand vs vehicle (limited proteolysis) (log2 ratio); higher = more trypsin-susceptible (destabilized). To be noted: ligand concentration: 5 uM; sample: K562 cleared lysate.
Take “UniProt Q9BTV6 (peptide sequence: EDNDGEGHARPQSGMK, peptide start residue: 382)”: the log2 fold change came out at 0.481.

For “TTC1 (peptide sequence: AIQLNPSYIR, peptide start residue: 181) (UniProt Q99614)”, the log2 fold change is -0.295.

Take “TUBB6 (peptide sequence: YLTVATVFR, peptide start residue: 310) (UniProt Q9BUF5)”: the log2 fold change was -2.99.

“PSMG3 (peptide sequence: VLLGQDEPLIHVFAK, peptide start residue: 66) (UniProt Q9BT73)”: the log2 fold change was -0.0927.

In the case of “AIF1L (peptide sequence: LVMMFEGK, peptide start residue: 122) (UniProt Q9BQI0)”, the log2 fold change is 0.0842.

As to “PRMT1 (peptide sequence: LDHVVTIIK, peptide start residue: 135) (UniProt Q99873)”, the log2 fold change turned out to be 0.566.

Take “DCLRE1C (peptide sequence: IPLHIISIKPSTMWFGER, peptide start residue: 280) (UniProt Q96SD1)”: the log2 fold change is -0.408.

Take “APBA2 (peptide sequence: SASQDCIETTPGAQEGKK, peptide start residue: 478) (UniProt Q99767)”: the log2 fold change turned out to be 0.795.

As to “WRNIP1 (peptide sequence: AGLNGLQLAVLAR, peptide start residue: 442) (UniProt Q96S55)”, the log2 fold change was found to be 0.0977.

As to “UniProt Q9BRT3 (peptide sequence: EQYPGIEIESR, peptide start residue: 48)”, the log2 fold change is -0.124.

For the target “UniProt Q99608 (peptide sequence: ALQQAAEEGR, peptide start residue: 69)”, the log2 fold change was determined as 0.34.

For the target “FUCA2 (peptide sequence: FDPTWESLDAR, peptide start residue: 34) (UniProt Q9BTY2)”, the log2 fold change was -0.16.

“ZNF184 (peptide sequence: AFNGPSTFIR, peptide start residue: 398) (UniProt Q99676)”: the log2 fold change came out at 0.212.

Turning to “UniProt Q96TC7 (peptide sequence: WCYQVSHLSWLEKK, peptide start residue: 372)”, the log2 fold change was 0.155.

As for “DCTN5 (peptide sequence: CVLKDCCK, peptide start residue: 120) (UniProt Q9BTE1)”, the log2 fold change is -0.506.

Consider “SMAD5 (peptide sequence: IPSSCSLK, peptide start residue: 374) (UniProt Q99717)”, for which the log2 fold change was -0.211.

Consider “UniProt Q99879 (peptide sequence: AVTKYTSSK, peptide start residue: 119)”, for which the log2 fold change was -0.0982.

As for “AKAP9 (peptide sequence: QREDQEQLQEEIKR, peptide start residue: 1619) (UniProt Q99996)”, the log2 fold change was -0.212.

As for “DIDO1 (peptide sequence: SIMFNLKDPK, peptide start residue: 727) (UniProt Q9BTC0)”, the log2 fold change is -0.232.

“HNRNPUL1 (peptide sequence: SGGGGYSQNR, peptide start residue: 662) (UniProt Q9BUJ2)”: the log2 fold change was 0.129.

Take “COQ7 (peptide sequence: TSVGPVIQK, peptide start residue: 77) (UniProt Q99807)”: the log2 fold change is -0.103.

“PDCD2L (peptide sequence: DVDWTAR, peptide start residue: 155) (UniProt Q9BRP1)”: the log2 fold change turned out to be 0.0875.

On to “PIK3R4 (peptide sequence: QISTADVYCK, peptide start residue: 685) (UniProt Q99570)”, for which the log2 fold change is -0.359.

Turning to “HSD17B10 (peptide sequence: FGRVDVAVNCAGIAVASK, peptide start residue: 82) (UniProt Q99714)”, the log2 fold change was 0.225.

As to “PIMREG (peptide sequence: IQESCQSGTK, peptide start residue: 100) (UniProt Q9BSJ6)”, the log2 fold change was -0.572.

As for “NIPSNAP1 (peptide sequence: NNKEYLEFRR, peptide start residue: 144) (UniProt Q9BPW8)”, the log2 fold change is 0.649.

For “PCYT2 (peptide sequence: EYADSFGK, peptide start residue: 172) (UniProt Q99447)”, the log2 fold change was 0.112.

In the case of “EFHD1 (peptide sequence: LGAPQTHLGLK, peptide start residue: 124) (UniProt Q9BUP0)”, the log2 fold change is -0.125.

Regarding “PSMD1 (peptide sequence: VINDKHDDVMAK, peptide start residue: 716) (UniProt Q99460)”, the log2 fold change was -0.434.

For the origin of these results see the supplement of paper PMC12819154, “High-throughput peptide-centric local stability assay extends protein–ligand identification to membrane proteins, tissues and bacteria” (Nature Structural & Molecular Biology, 2025).
